Measured values as given in PMC10269652.
These are yes or no findings as the source states them, for the method shown. In cells and extracts the contact can be indirect. Binding can be weak; no strength is given. Sequences can lack the tags named with a protein.

Protein sequences, listed by entry. Tags and fused reporters are not part of them. Lines headed by an entry give the natural chain unless they say otherwise; changes in a name come on top.
UniProt P02919: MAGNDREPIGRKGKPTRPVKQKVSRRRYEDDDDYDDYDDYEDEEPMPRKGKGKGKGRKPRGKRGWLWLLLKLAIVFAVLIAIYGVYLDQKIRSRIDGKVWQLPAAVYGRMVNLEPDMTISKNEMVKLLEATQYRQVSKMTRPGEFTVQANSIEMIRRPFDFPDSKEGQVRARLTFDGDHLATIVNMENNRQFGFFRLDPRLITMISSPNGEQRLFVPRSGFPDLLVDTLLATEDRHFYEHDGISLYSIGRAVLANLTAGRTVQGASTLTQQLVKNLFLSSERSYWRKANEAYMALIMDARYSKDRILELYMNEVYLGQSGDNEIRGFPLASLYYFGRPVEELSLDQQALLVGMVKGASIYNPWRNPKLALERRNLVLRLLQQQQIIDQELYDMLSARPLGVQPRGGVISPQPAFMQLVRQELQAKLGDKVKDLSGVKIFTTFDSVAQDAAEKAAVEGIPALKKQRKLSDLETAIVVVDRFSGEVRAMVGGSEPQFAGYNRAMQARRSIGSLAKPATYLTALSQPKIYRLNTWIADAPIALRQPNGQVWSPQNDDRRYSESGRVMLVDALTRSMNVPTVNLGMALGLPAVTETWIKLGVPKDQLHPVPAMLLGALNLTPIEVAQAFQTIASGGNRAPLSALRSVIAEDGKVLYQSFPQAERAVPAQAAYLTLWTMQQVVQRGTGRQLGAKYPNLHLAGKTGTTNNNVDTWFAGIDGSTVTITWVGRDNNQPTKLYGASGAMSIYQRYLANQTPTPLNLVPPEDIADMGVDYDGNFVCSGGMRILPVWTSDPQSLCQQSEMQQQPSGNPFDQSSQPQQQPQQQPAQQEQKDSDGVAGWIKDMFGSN

Tests used:
[1] = molecular target: T1, His-tagged DacC (pET28a) (E. coli) (UniProt P08506); test: pull-down; supernatant of ER2566 cells with nontagged PBP1b mixed with supernatant of ER2566 cells with His-tagged DD-CPase; Talon metal affinity resin; binding buffer at pH 9.0, 4°C; eluate on gel, Coomassie stain
T1 sequence: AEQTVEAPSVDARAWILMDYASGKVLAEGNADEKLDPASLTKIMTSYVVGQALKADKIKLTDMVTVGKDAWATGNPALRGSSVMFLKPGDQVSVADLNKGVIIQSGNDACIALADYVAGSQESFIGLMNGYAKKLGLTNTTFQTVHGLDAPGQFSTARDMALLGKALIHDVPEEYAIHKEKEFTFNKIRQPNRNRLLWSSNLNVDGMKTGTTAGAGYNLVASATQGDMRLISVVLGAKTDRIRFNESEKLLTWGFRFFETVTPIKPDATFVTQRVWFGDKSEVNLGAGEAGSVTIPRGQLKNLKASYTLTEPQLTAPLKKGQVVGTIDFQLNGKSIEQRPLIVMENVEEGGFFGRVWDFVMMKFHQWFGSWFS

[2] = molecular target: T2, His-tagged DacA (pET28a) (E. coli) (UniProt P0AEB2); test: as above
T2 sequence: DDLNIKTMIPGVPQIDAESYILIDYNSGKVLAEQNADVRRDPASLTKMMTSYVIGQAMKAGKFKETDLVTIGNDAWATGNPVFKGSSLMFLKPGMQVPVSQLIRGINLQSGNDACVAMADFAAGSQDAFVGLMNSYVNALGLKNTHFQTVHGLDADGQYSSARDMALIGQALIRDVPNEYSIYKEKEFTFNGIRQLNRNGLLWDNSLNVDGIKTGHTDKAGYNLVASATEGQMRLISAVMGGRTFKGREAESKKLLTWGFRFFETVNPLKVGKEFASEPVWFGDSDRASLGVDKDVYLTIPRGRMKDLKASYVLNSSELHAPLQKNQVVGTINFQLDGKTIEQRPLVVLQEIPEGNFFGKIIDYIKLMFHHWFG

[3] = molecular target: T1, His-tagged DacC (pET28a) (E. coli); test: pull-down; supernatant of ER2566 cells with nontagged PBP1b mixed with supernatant of ER2566 cells with His-tagged DD-CPase; Talon metal affinity resin; binding buffer at pH 8.0, 4°C; eluate on gel, Coomassie stain
[4] = molecular target: T2, His-tagged DacA (pET28a) (E. coli); test: as above

Measured: binding

nontagged PBP1b (pET24a) (from UniProt P02919) (enzyme)
binds: [1] | [2] | [3] | [4]
